Measured values: article PMC11545644
No constants are given. Whether binding was seen depends on the method and setting. Some binding calls cover weakened binding; strength is not graded here.

By UniProt entry, the sequences of proteins in these tests, tags left out. Residues count along the entry.
UniProt P36896, residues 24-126: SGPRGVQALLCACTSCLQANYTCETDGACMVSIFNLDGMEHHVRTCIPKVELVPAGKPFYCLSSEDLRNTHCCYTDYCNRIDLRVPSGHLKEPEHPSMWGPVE
UniProt P11021, residues 19-654: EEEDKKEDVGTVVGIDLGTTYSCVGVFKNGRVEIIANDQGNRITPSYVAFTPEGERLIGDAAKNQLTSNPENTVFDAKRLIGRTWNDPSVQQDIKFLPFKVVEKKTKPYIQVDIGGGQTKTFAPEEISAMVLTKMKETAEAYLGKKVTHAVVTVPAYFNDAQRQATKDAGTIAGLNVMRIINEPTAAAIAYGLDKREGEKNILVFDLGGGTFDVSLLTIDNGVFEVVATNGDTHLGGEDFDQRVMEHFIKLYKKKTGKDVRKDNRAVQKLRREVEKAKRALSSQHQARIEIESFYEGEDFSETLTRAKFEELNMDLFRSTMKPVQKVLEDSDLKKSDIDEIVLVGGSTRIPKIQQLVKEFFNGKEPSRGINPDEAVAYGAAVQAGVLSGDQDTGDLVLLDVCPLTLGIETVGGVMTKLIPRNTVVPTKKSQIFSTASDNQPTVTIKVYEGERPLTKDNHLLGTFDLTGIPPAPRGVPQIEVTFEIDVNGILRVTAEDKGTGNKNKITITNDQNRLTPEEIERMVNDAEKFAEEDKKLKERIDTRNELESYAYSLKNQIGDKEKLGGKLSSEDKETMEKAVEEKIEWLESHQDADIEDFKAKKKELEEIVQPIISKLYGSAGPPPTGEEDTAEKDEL
UniProt P13385, residues 31-150: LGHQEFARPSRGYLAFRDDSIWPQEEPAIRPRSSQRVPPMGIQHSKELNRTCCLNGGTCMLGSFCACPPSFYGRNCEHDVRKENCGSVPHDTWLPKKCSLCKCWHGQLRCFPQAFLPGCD
UniProt P51864: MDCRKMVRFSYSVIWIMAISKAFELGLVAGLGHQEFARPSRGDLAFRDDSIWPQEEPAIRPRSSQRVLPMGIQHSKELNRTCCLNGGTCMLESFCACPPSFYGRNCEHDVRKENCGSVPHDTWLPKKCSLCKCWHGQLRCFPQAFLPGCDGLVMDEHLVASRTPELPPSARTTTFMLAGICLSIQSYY

Columns and labels:
Test in all cases: ELISA; Nodal, GRP78 or Alk4 passively adsorbed to 96-well plates at 50 ng/50 uL/well overnight at 4 C, blocked with HFBTS; hCR1 or hCR3 added at 50 ng/50 uL/well alone or mixed in equal concentrations, 30 min at RT; bound hCR1 or hCR3 detected with NCI 5G1-1 or NCI 5G11-2 MoAb and anti-mouse IgG-HRP, OD 450 nm; both purified
[1] = biological target: recombinant human Alk4 (human) (UniProt P36896)
[2] = biological target: recombinant human GRP78 (human) (UniProt P11021)
[3] = biological target: T1, recombinant human NODAL (human) (UniProt Q96S42)
T1 sequence: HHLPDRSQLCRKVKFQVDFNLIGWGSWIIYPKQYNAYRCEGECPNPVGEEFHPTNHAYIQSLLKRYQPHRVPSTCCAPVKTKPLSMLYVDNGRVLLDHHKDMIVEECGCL

binding [1] | binding [2] | binding [3] | Substance
binds | binds | binds | recombinant human Cripto-1 (GenScript hCR1) (from UniProt P13385 31-150)
binds | binds | binds | recombinant human Cripto-3 (MyBioSource hCR3) (from UniProt P51864 1-188)
